According to ChEMBL document CHEMBL3351767, “The discovery of Polo-like kinase 4 inhibitors: design and optimization of spiro[cyclopropane-1,3'[3H]indol]-2'(1'H).ones as orally bioavailable antitumor agents” (J Med Chem, 2015):

Tested on: MDA-MB-231
Assay: Cytotoxicity against human MDA-MB-231 cells after 5 days by SRB assay
Type: functional
Conditions: MDA-MB-231, 120 h

CNC(=O)c1ccccc1Sc1ccc2c(/C=C/c3ccccn3)n[nH]c2c1 [AXITINIB]
GI50: 11 µM
